Measured values published in PMC7237453.

Experiments:
[1] = target: T1, FLAG-tagged Pit-1 (human) (UniProt P28069); experiment: co-IP; HEK293 cells co-transfected with FLAG-Pit-1 and HA-cryptic or HA-canonical ESRRG; cell extract immunoprecipitated with FLAG antibody on protein G agarose; 50 mM Tris, 150 mM NaCl, 0.1% Triton X-100; 4 °C, 16 h; anti-HA immunoblot
T1 sequence: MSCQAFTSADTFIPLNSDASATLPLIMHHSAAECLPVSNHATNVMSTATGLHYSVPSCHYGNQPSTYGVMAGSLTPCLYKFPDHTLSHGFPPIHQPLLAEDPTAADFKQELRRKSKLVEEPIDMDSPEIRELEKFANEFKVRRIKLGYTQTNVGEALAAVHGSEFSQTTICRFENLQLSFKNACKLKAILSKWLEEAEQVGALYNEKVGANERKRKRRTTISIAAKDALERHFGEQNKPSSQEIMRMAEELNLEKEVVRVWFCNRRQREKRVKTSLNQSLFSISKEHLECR

[2] = target: T2, GST-Pit-1 fusion protein (pituitary-specific positive transcription factor 1 fused to glutathione S-transferase) (human) (UniProt P28069); experiment: pull-down; GST-Pit-1 (500 ug) immobilised on GST-tag purification resin, incubated with 500 ug HIS-cryptic or HIS-canonical ESRRG; 50 mM Tris, 150 mM NaCl, 0.1% Triton X-100, 10 mM EDTA, pH 8.0; 4 °C, 16 h; anti-HIS immunoblot; GST protein as negative control; both purified
T2 sequence: T1 sequence

## HA-tagged cryptic ESRRG (human)
[1]
  binding: binds

## HIS-tagged cryptic ESRRG (estrogen related receptor gamma, cryptic splice form) (human)
[2]
  binding: binds

These are yes or no findings as the source states them, for the method shown. Binding can be weak; no strength is given. Where a sequence is shown, tags or fusion partners need not be part of it. For some assays here: In cells and extracts the contact can be indirect.
